From patent publication US20220162182A1, “KINASE INHIBITOR COMPOUNDS AND COMPOSITIONS AND METHODS OF USE” (ICAHN SCHOOL OF MEDICINE AT MOUNT SINAI, priority 2018, published 2022)
The match of structure and compound is tentative.

Assays:
[1] = target: DYRK1/DYRK1A (Homo sapiens, UniProt Q13627); test: DYRK1/DYRK1A IC50 assay (Reaction Biology Corp.); conditions: read-out: IC50 (nM), DYRK1A; DYRK1/DYRK1A assay from Reaction Biology Corp.
[2] = target: DYRK1A (Homo sapiens, UniProt Q13627); test: KINOMEscan DYRK1A binding assay (DiscoverX), Kd determination; conditions: read-out: Kd (nM), DYRK1A Binding Activity, eleven serial three fold dilutions, highest concentration 60 μM, several values in a cell = repeat determinations
Procedure: Compounds were tested for DYRK1A binding activity at DiscoverX. DiscoverX uses proprietary KINOMEscan® Assay (Fabian et al., “A Small Molecule-kinase Interaction Map for Clinical Kinase Inhibitors,” Nat. Biotechnol. 23(3):329-336 (2005), which is hereby incorporated by reference in its entirety). Compounds were screened for DYRK1A activity at a single concentration of 3 μM in duplicates. Similarly, the dissociation constant Kd of the hit compounds from the initial screening was determined at DiscoverX using their proprietary KINOMEscan® Assay. Kd values are determined using eleven serial three fold dilutions with the highest concentration of 60 μM.

IC50 [1] [nM] | Kd [2] [nM] | Compound
15.2 | – | O=c1[nH]c2ccc(-c3cncc(NCc4c[nH]cn4)c3)cc2[nH]1
– | 1.3 | O=c1[nH]c2ccc(-c3cncc(NCc4cccc(Cl)c4)c3)cc2[nH]1
